This experiment addresses RACK1A-GFP (RECEPTOR FOR … C KINASE 1A fused to GFP, 5'UTR-pRACK1A::gRACK1A:GFP:3'UTR) (Arabidopsis thaliana) (UniProt O24456). In words: affinity purification with mass spectrometry; GFP trap of RACK1A-GFP from extracts of 14-d-old seedlings of the RACK1A-GFP line treated with liquid 1/2 MS with or without 150 mM NaCl for 1 h; on-beads trypsin digestion, LC-ESI-MS/MS; 4 biological replicates; proteins interacting with YFP removed as unspecific.

These are yes or no findings as the source states them, for the method shown. In cells and extracts the contact can be indirect. A yes stands for co-enrichment or nearness to the bait. Other partners may have been found.

B1: FSD3, endogenous (enzyme, UniProt Q9FMX0 42-263)
chain: GGLKVEAYYGLKTPPYPLDALEPYMSRRTLEVHWGKHHRGYVDNLNKQLGKDDRLYGYTMEELIKATYNNGNPLPEFNNAAQVYNHDFFWESMQPGGGDTPQKGVLEQIDKDFGSFTNFREKFTNAALTQFGSGWVWLVLKREERRLEVVKTSNAINPLVWDDIPIICVDVWEHSYYLDYKNDRAKYINTFLNHLVSWNAAMSRMARAEAFVNLGEPNIPIA
For the molecule B1, the binding result is listed as “binds”.

B2: TUDOR STAPHYLOCOCCAL NUCLEASE 2 (TSN2), endogenous (protein, UniProt Q9FLT0 1-985)
chain: MATGAATENQWLKGRVKAVTSGDCLVITALTHNRAGPPPEKTITLSSLMAPKMARRGGIDEPFAWESREFLRKLCIGKEVAFKVDYKVEAIAGREFGSVYLGNENLAKLVVQNGWAKVRRPGQQNQDKVSPYIAELEQLEEQAQQEGFGRWSKVPGAAEASIRNLPPSAVGDSGNFDAMGLLAASKGKPMEGIVEQVRDGSTIRVYLLPEFQFVQVFVAGLQAPSMGRRQSTQEAVVDPDVTATSNGDASAETRGPLTTAQRLAASAASSVEVSSDPFAMEAKYFTELRVLNRDVRIVLEGVDKFNNLIGSVYYSDGDTVKDLGLELVENGLAKYVEWSANMLDEEAKKKLKATELQCKKNRVKMWANYVPPASNSKAIHDQNFTGKVVEVVSGDCLVVADDSIPFGSPMAERRVCLSSIRSPKMGNPRREEKPAPYAREAKEFLRQKLIGMEVIVQMEYSRKISPGDGVTTSGAGDRVMDFGSVFLPSPTKGDTAVAAAATPGANIAELIISRGLGTVVRHRDFEERSNHYDALLAAEARAIAGKKNIHSAKDSPALHIADLTVASAKKAKDFLPSLQRINQISAVVEYVLSGHRFKLYIPKESCSIAFAFSGVRCPGRGEPYSEEAIALMRRKIMQRDVEIVVENVDRTGTFLGSMWEKNSKTNAGTYLLEAGLAKMQTGFGADRIPEAHILEMAERSAKNQKLKIWENYVEGEEVVNGSSKVETRQKETLKVVVTEVLGGGRFYVQTVGDQKVASIQNQLAALSLKDAPIIGSFNPKKGDIVLAQFSLDNSWNRAMIVNGPRGAVQSPEEEFEVFYIDYGNQEIVPYSAIRPVDPSVSSAPGLAQLCRLAYIKVPGKEEDFGRDAGEYLHTVTLESGKEFRAVVEERDTSGGKVKGQGTGTELVVTLIAVDDEISVNAAMLQEGIARMEKRRRWEPKDKQAALDALEKFQDEARKSRTGIWEYGDIQSDDEDNVPVRKPGRG
On to B2, for which the binding result was “binds”.

B3: … SUPEROXIDE DISMUTASE 1 (MSD1), endogenous (enzyme, UniProt O81235 30-231)
chain: TFTLPDLPYDYGALEPAISGEIMQIHHQKHHQAYVTNYNNALEQLDQAVNKGDASTVVKLQSAIKFNGGGHVNHSIFWKNLAPSSEGGGEPPKGSLGSAIDAHFGSLEGLVKKMSAEGAAVQGSGWVWLGLDKELKKLVVDTTANQDPLVTKGGSLVPLVGIDVWEHAYYLQYKNVRPEYLKNVWKVINWKYASEVYEKENN
For B3, the binding entry is “binds”.

B4: FSD2, endogenous (enzyme, UniProt Q9LU64 47-305)
chain: GVITAGFELKPPPYPLDALEPHMSRETLDYHWGKHHKTYVENLNKQILGTDLDALSLEEVVLLSYNKGNMLPAFNNAAQAWNHEFFWESIQPGGGGKPTGELLRLIERDFGSFEEFLERFKSAAASNFGSGWTWLAYKANRLDVANAVNPLPKEEDKKLVIVKTPNAVNPLVWDYSPLLTIDTWEHAYYLDFENRRAEYINTFMEKLVSWETVSTRLESAIARAVQREQEGTETEDEENPDDEVPEVYLDSDIDVSEVD
On to B4, for which the binding entry is recorded as “binds”.

B5: ASCORBATE PEROXIDASE 3, endogenous (enzyme, UniProt Q42564 1-287)
chain: MAAPIVDAEYLKEITKARRELRSLIANKNCAPIMLRLAWHDAGTYDAQSKTGGPNGSIRNEEEHTHGANSGLKIALDLCEGVKAKHPKITYADLYQLAGVVAVEVTGGPDIVFVPGRKDSNVCPKEGRLPDAKQGFQHLRDVFYRMGLSDKDIVALSGGHTLGRAHPERSGFDGPWTQEPLKFDNSYFVELLKGESEGLLKLPTDKTLLEDPEFRRLVELYAKDEDAFFRDYAESHKKLSELGFNPNSSAGKAVADSTILAQSAFGVAVAAAVVAFGYFYEIRKRMK
For B5, the binding entry is on record as “binds”.

B6: TUDOR STAPHYLOCOCCAL NUCLEASE 1 (TSN1), endogenous (protein, UniProt Q8VZG7 1-991)
chain: MATGAENQWLKGRVKAVTSGDCLVITALSHNRAGPPPEKTITFSSLMAPKMARRGGIDEPFAWESKEFLRKLCIGKEVAFKVDYKVEAIAGREFGSVFLGNENLAKLVVKTGWAKVREPGQQNQDKVSPYIKELLQLEELAKQEGYGRWSKVPGAAEASIRNLPPSAIGDSAGFDAMGLLAANKGKPMEGIVEQVRDGSTIRVYLLPEFQFVQVFVAGVQAPSMGRRTTNGSVVETVPDEPNGDVSAESRGPLTTAQRLAASAASSVEVSSDPFATEAKYFTEHRVLSRDVRIVLEGVDKFNNLIGSVHYSDGETVKDLGLELVENGLAKFVEWSANMMEEEAKKKLKAAELQCKKDKVKMWANYVPPATNSKAIHDQNFTGKVVEVVSGDCLIVADDAVPFGSPAAERRVCLSSIRSPKMGNPRREEKPAPYAREAREFLRQRLIGKQVIVQMEYSRKVTQGDGPTTSGAADRFMDFGSVFLPSAAKADSDEVTAPPAAAIAGSQPVGVNIAELVLVRGFGNVVRHRDFEERSNHYDALLAAEARALAGKKGIHSAKESPAMHITDLTVSAAKKAKDFLPSLQRIRRIPAVVEYVLSGHRFKLYIPKITCSIAFSFSGVRCPGRGEPYSEEAISVMRRRIMQRDVEIEVETVDRTGTFLGSMWESRTNVATVLLEAGLAKMQTSFGADRIAEAHLLEQAERSAKNQKLKIWENYVEGEEVSNGNTNTVETRQKETLKVVVTEVLGGGRFYVQSAGDQKIASIQNQLASLSIKDAPIIGSFNPKRGDIVLAQFSLDNSWNRAMIVTAPRAAVQSPDEKFEVFYIDYGNQETVPYSAIRPIDPSVSAAPGLAQLCRLAYIKVPSLEDDFGPEAGEYLHTVTLGSGKEFKAVIEERDTSGGKVKGQGTGTEFVVTLIAVDDEISVNAAMLQEGIARMEKRQKWGHKGKQAALDALEKFQEEARKSRIGIWQYGDIESDDEDTGPARKPAGGRR
Consider B6, for which the binding result was “binds”.

The values above are taken from article PMC12853880.
